PubChem BioAssay AID743121, NCATS – 2013
Shown is one part, drawn at random, of about 26,000 deposited reagents. In the full data, 167 (0.63%) were called active. 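Calls are per gene from RSA p-values that are not deposited; an individual active-marked siRNA can sensitise only weakly.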 Reagents against one gene are numbered here. Further read-outs or replicates are left out here.

Test: 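Knock-downs that sensitise breast cancer cells to camptothecin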 (primary screen)
Cells: MDA-MB-231 cells, a human breast cancer line
Reagent: single siRNA against human genes, 20 nM siRNA (0.8 pmol per well)
Duration: 120 h (drug added 48 h after transfection, read 72 h later)
Conditions: camptothecin 20 nM (about EC30) for 72 h; vehicle 0.1% DMSO in parallel plates
Measurement: 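Cell viability by ATP luminescence (CellTiter-Glo) as % of non-targeting siRNA wells, and the log2 ratio of viability without drug over viability with camptothecin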
Scale: log2 vehicle/camptothecin viability: higher = stronger sensitisation to camptothecin
Active means: 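Each gene scored by redundant siRNA activity (RSA) over its individual siRNA ratios; a gene is called active at p < 0.001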

{"gene":"ATF2 (activating transcription factor 2)","reagent":1,"log2 vehicle/camptothecin viability":0.231,"call":"inactive"}
{"gene":"ATF2 (activating transcription factor 2)","reagent":2,"log2 vehicle/camptothecin viability":-0.104,"call":"inactive"}
{"gene":"ATF2 (activating transcription factor 2)","reagent":3,"log2 vehicle/camptothecin viability":-0.0862,"call":"inactive"}
{"gene":"KCNJ6 (potassium inwardly rectifying channel subfamily J member 6)","reagent":1,"log2 vehicle/camptothecin viability":-0.0229,"call":"inactive"}
{"gene":"KCNJ6 (potassium inwardly rectifying channel subfamily J member 6)","reagent":2,"log2 vehicle/camptothecin viability":-0.606,"call":"inactive"}
{"gene":"KCNJ6 (potassium inwardly rectifying channel subfamily J member 6)","reagent":3,"log2 vehicle/camptothecin viability":-0.2,"call":"inactive"}
{"gene":"KCNJ6 (potassium inwardly rectifying channel subfamily J member 6)","reagent":4,"log2 vehicle/camptothecin viability":-0.309,"call":"inactive"}
{"gene":"MAP1A (microtubule associated protein 1A)","reagent":1,"log2 vehicle/camptothecin viability":-0.659,"call":"inactive"}
{"gene":"MAP1A (microtubule associated protein 1A)","reagent":2,"log2 vehicle/camptothecin viability":-0.49,"call":"inactive"}
{"gene":"MAP1A (microtubule associated protein 1A)","reagent":3,"log2 vehicle/camptothecin viability":-0.262,"call":"inactive"}
{"gene":"ASIC4 (acid sensing ion channel subunit family member 4)","reagent":1,"log2 vehicle/camptothecin viability":-0.329,"call":"inactive"}
{"gene":"ASIC4 (acid sensing ion channel subunit family member 4)","reagent":2,"log2 vehicle/camptothecin viability":-0.632,"call":"inactive"}
{"gene":"ASIC4 (acid sensing ion channel subunit family member 4)","reagent":3,"log2 vehicle/camptothecin viability":-0.152,"call":"inactive"}
{"gene":"IL12B (interleukin 12B)","reagent":1,"log2 vehicle/camptothecin viability":-0.253,"call":"inactive"}
{"gene":"IL12B (interleukin 12B)","reagent":2,"log2 vehicle/camptothecin viability":-0.132,"call":"inactive"}
{"gene":"IL12B (interleukin 12B)","reagent":3,"log2 vehicle/camptothecin viability":-0.312,"call":"inactive"}
{"gene":"IL12B (interleukin 12B)","reagent":4,"log2 vehicle/camptothecin viability":-0.327,"call":"inactive"}
{"gene":"ATP4A (ATPase H+/K+ transporting subunit alpha)","reagent":1,"log2 vehicle/camptothecin viability":-0.388,"call":"inactive"}
{"gene":"ATP4A (ATPase H+/K+ transporting subunit alpha)","reagent":2,"log2 vehicle/camptothecin viability":-0.908,"call":"inactive"}
{"gene":"ATP4A (ATPase H+/K+ transporting subunit alpha)","reagent":3,"log2 vehicle/camptothecin viability":-0.482,"call":"inactive"}
{"gene":"DCK (deoxycytidine kinase)","reagent":1,"log2 vehicle/camptothecin viability":0.199,"call":"inactive"}
{"gene":"DCK (deoxycytidine kinase)","reagent":2,"log2 vehicle/camptothecin viability":0.242,"call":"inactive"}
{"gene":"DCK (deoxycytidine kinase)","reagent":3,"log2 vehicle/camptothecin viability":-0.185,"call":"inactive"}
{"gene":"DCK (deoxycytidine kinase)","reagent":4,"log2 vehicle/camptothecin viability":-0.274,"call":"inactive"}

2 entries from above in another layout.
| gene | reagent | log2 vehicle/camptothecin viability | call |
| --- | --- | --- | --- |
| MAP1A (microtubule associated protein 1A) | 3 | -0.262 | inactive |
| ASIC4 (acid sensing ion channel subunit family member 4) | 1 | -0.329 | inactive |
